Source: the supplement of paper PMC4807443
Structures can show the parent of a compound that is named as a salt. Some of the results follow. The numbers are fractions of the control, whatever unit the source prints. Most entries show no effect beyond the scatter of the controls.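 MIN6 is a mouse insulinoma beta-cell line that stably carries a lentiviral reporter in which the Pdx1 and Ins1 promoters each drive a nucleus-targeted fluorescent protein; cells were counted by automated imaging with a Hoechst nuclear stain. In the screen, a drug was a possible hit when its Ins1 promoter readout lay beyond two median absolute deviations from the DMSO controls while Pdx1 activity stayed near normal.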

System: MIN6
Assay: % Pdx1+ Ins1-low (RFP-only, immature) cells relative to DMSO control (fold of DMSO control); higher = more immature Pdx1+/Ins1-low cells
Settings: 8.5 µM; 48 h; glucose 5 mM

Structure (SMILES)	% Pdx1+ Ins1-low
C[C@]12C[C@H]3S[C@H]3C[C@@H]1CC[C@@H]1[C@@H]2CC[C@]2(C)[C@@H](O)CC[C@@H]12 [Epitiostanol]	1.11
COP(=O)(OC)C(O)C(Cl)(Cl)Cl (stereo unspecified) [Trichlorfon]	0.8
C[C@H]1CC[C@]2(NC1)O[C@H]1C[C@H]3[C@@H]4CC[C@H]5C[C@@H](O)CC[C@]5(C)[C@H]4CC[C@]3(C)[C@H]1[C@@H]2C [Tomatidine]	0.848
C[C@]12CCC(=O)C=C1C=C[C@@H]1[C@@H]2CC[C@@]2(C)[C@H]1CC[C@@]2(O)CCC(=O)O [Canrenoic acid potassium salt]	0.547
C(#CCN1CCCC1)CN1CCCC1 [Tremorine dihydrochloride]	0.941
CCCN1CCC[C@@H]2Cc3n[nH]cc3C[C@H]21 [(-)-Quinpirole hydrochloride]	0.962
C[C@]12CC[C@H](O)C[C@H]1CC[C@@H]1[C@@H]2CC[C@]2(C)[C@@H](C3=CC(=O)OC3)CC[C@]12O [Digitoxigenin]	1.16
CC(C)c1cccc(C(C)C)c1O [Propofol]	0.649
COC1=CC(=O)O[C@@H](/C=C/c2ccccc2)C1 [Kawain]	0.863
Oc1ccc2c3c1O[C@H]1[C@@H](O)CC[C@@]4(O)[C@@H](C2)N(CC2CCC2)CC[C@]314 [Nalbuphine hydrochloride]	0.777
CN1CCc2cc3c(cc2[C@H]1[C@@H]1OC(=O)c2c1ccc1c2OCO1)OCO3 [Bicuculline (+)]	1.64
O=C(NCNC(=O)NC1C(=O)NC(=O)N1CO)NC1C(=O)NC(=O)N1CO (stereo unspecified) [Imidurea]	0.903
CC(=O)O[C@H]1CC[C@@]2(C)C(=CC[C@@H]3[C@@H]2CC[C@]2(C)C(=O)CC[C@@H]32)C1 [Dehydroisoandosterone 3-acetate]	0.883
CN1C[C@H](CNC(=O)OCc2ccccc2)C[C@@H]2c3cccc4c3c(cn4C)C[C@H]21 [Metergoline]	1.24
COc1cc2c(c(OC)c1OC)-c1ccc(OC)c(=O)cc1[C@@H](NC(C)=O)CC2 [Colchicine]	1.41
COc1ccc2c(c1OC)CN1CCc3cc4c(cc3C1C2)OCO4 (stereo unspecified) [(d,l)-Tetrahydroberberine]	1.01
C[C@H]1O[C@@H](O[C@H]2CC[C@]3(C=O)[C@H]4CC[C@]5(C)[C@@H](C6=CC(=O)OC6)CC[C@]5(O)[C@@H]4CC[C@]3(O)C2)C[C@H](O)[C@@H]1O [Helveticoside]	0.581
CC[N+]1(C)CCCC(OC(=O)C(O)(c2ccccc2)c2ccccc2)C1 (stereo unspecified) [Pipenzolate bromide]	0.647
c1ccc2c(c1)OCC(C1=NCCN1)O2 (stereo unspecified) [Idazoxan hydrochloride]	0.802
C=C1C/C(=C/C)C(=O)O[C@@H]2CCN3CC=C(COC(=O)[C@]1(C)O)[C@H]23 [Seneciphylline]	1.12
CCCCCC[C@H]1C(=O)O[C@H](C)[C@H](NC(=O)c2cccc(NC=O)c2O)C(=O)O[C@@H](C)[C@@H]1OC(=O)CC(C)C [Antimycin A]	1.36
COc1ccc2c(c1OC)C(=O)O[C@@H]2[C@H]1c2cc3c(cc2CCN1C)OCO3 [Hydrastine hydrochloride]	0.989

Structure (SMILES)	% Pdx1+ Ins1-low
C[C@@H]1C[C@@H]([C@H](O)CC2CC(=O)NC(=O)C2)C(=O)[C@@H](C)C1 [Cycloheximide]	1.3
CC[C@@H](CO)NC(=O)[C@@H]1C=C2c3cccc4[nH]cc(c34)C[C@H]2N(C)C1 [Methylergometrine maleate]	1.32
c1cncc([C@@H]2CCCCN2)c1 [Anabasine]	0.84
O=c1[nH]oc2c1CCNC2 [THIP Hydrochloride]	0.959
CC(N)C(O)c1ccccc1 (stereo unspecified) [Phenylpropanolamine hydrochloride]	1.89
O=C(CCCN1CCC2(CC1)C(=O)NCN2c1ccccc1)c1ccc(F)cc1 [Spiperone]	1.18
CC(C)C[C@H]1C(=O)N2CCC[C@H]2[C@]2(O)O[C@](NC(=O)[C@@H]3C=C4c5cccc6[nH]cc(c56)C[C@H]4N(C)C3)(C(C)C)C(=O)N12 [Ergocryptine-alpha]	1.69
CCN1C[C@]2(COC)CC[C@H](O)[C@]34C1[C@@](O)([C@@H](OC)[C@H]23)[C@@]1(O)C[C@H](OC)[C@H]2C[C@@H]4[C@@H]1[C@H]2OC [Delsoline]	1.11
O=[N+]([O-])O[C@H]1CO[C@H]2[C@@H]1OC[C@H]2O[N+](=O)[O-] [Isosorbide dinitrate]	0.922
CCN1C[C@]2(COC)CC[C@H](OC)[C@]34C5C[C@@H]6[C@@H](OC)C[C@@]7(OCO[C@@]7(C13)[C@@H](O)C24)C5[C@H]6OC (stereo partly specified) [Delcorine]	0.808
NCC1(CC(=O)O)CCCCC1 [Gabapentin]	0.78
O=c1cccc2n1C[C@@H]1CNC[C@H]2C1 [Cytisine (-)]	1.05
CC[C@@H](C)C(=O)O[C@H]1[C@H](O)[C@H]2[C@@H](CN3C[C@@H](C)CC[C@H]3[C@@]2(C)O)[C@@H]2C[C@]34O[C@]5(O)[C@@H](OC(=O)[C@@](C)(O)CC)CC[C@@]3(C)[C@@H]5[C@@H](OC(C)=O)[C@@H](OC(C)=O)[C@H]4[C@@]21O [Protoveratrine A]	0.863
CCOC(=O)c1cncn1[C@H](C)c1ccccc1 [Etomidate]	0.849
COc1ccc(CC2c3cc(OC)c(OC)cc3CCN2C)cc1OC (racemic) [Laudanosine (R,S)]	1.21
CCCC(C)(COC(N)=O)COC(=O)NC(C)C (stereo unspecified) [Carisoprodol]	0.839
C[C@@]12C(=O)OC(=O)[C@]1(C)[C@H]1CC[C@@H]2O1 [Cantharidin]	0.789
CCC1(C)CC(=O)NC(=O)C1 [Bemegride]	1.32
C[N+]1(C)CCCC(OC(=O)C(O)(c2ccccc2)c2ccccc2)C1 (stereo unspecified) [Mepenzolate bromide]	0.877
CN1C2CCC1CC(O)C2 (stereo unspecified) [Tropine]	1.39
OC(c1ccccc1)(c1ccccc1)C1CCNCC1 [Azacyclonol]	0.998
COc1cc2c(cc1O)C[C@H]1c3c(cc(O)c(OC)c3-2)CCN1C [Boldine]	0.597

Structure (SMILES)	% Pdx1+ Ins1-low
COc1ccc(C(=O)OC2C[C@H]3CC[C@@H](C2)N3C)cc1OC (stereo partly specified) [Convolamine hydrochloride]	0.725
C[C@H]1CC[C@]2(NC1)O[C@H]1C[C@H]3[C@@H]4CC[C@H]5C[C@@H](O[C@@H]6O[C@H](CO)[C@H](O[C@@H]7O[C@H](CO)[C@@H](O)[C@H](O[C@@H]8OC[C@@H](O)[C@H](O)[C@H]8O)[C@H]7O[C@@H]7O[C@H](CO)[C@@H](O)[C@H](O)[C@H]7O)[C@H](O)[C@H]6O)CC[C@]5(C)[C@H]4CC[C@]3(C)[C@H]1[C@@H]2C [Tomatine]	0.66
O=C(CCCN1CCC(n2c(=O)[nH]c3ccccc32)CC1)c1ccc(F)cc1 [Benperidol]	0.873
C[C@@H]1CN([C@H]2CC[C@](C#N)(c3ccc(F)cc3)CC2)CC[C@]1(C(=O)O)c1ccccc1 [Levocabastine hydrochloride]	1.07
COc1ccc(OC)c(C(O)C(C)N)c1 (stereo unspecified) [Methoxamine hydrochloride]	0.943
CCC(=O)O[C@H]1CC[C@H]2[C@@H]3CCC4=CC(=O)CC[C@]4(C)[C@H]3CC[C@]12C [Testosterone propionate]	1.14
C[C@@H]1CC[C@]2(NC1)O[C@H]1C[C@H]3[C@@H]4CC=C5C[C@@H](O)CC[C@]5(C)[C@H]4CC[C@]3(C)[C@H]1[C@@H]2C [Solasodine]	0.912
CN1C2CC(=O)CC1C(O)C2 (stereo unspecified) [6-Hydroxytropinone]	0.985
CN1C(=O)CCS(=O)(=O)C1c1ccc(Cl)cc1 (stereo unspecified) [Chlormezanone]	0.811
CO[C@@H]1C=C2CCN(C)[C@@H]2C2c3cc4c(cc3C(=O)OC21)OCO4 (stereo partly specified) [Ungerine nitrate]	1.18
CC(=O)[C@H]1CC[C@H]2[C@@H]3CC[C@H]4C[C@H](O)CC[C@]4(C)[C@H]3C(=O)C[C@]12C [Alfaxalone]	0.508
CNC(=O)Oc1ccc2c(c1)[C@]1(C)CCN(C)[C@@H]1N2C [Eserine sulfate, physostigmine sulfate]	0.959
CN(C)C(=O)Oc1cccc([N+](C)(C)C)c1 [Neostigmine bromide]	1.35
CCNCC(O)c1cccc(O)c1 (stereo unspecified) [Etilefrine hydrochloride]	0.619
CN1CCc2cc3c(cc2C1O)OCO3 (stereo unspecified) [Hydrastinine hydrochloride]	0.89
CC(C)C[C@H]1C(=O)N2CCC[C@H]2[C@]2(O)O[C@](NC(=O)[C@@H]3C=C4c5cccc6[nH]c(Br)c(c56)C[C@H]4N(C)C3)(C(C)C)C(=O)N12 [Bromocryptine mesylate]	1.42
CN1[C@@H]2CC[C@H]1C[C@@H](OC(=O)C(CO)c1ccccc1)C2 (stereo partly specified) [Atropine sulfate monohydrate]	0.954
CN1Cc2c(ccc3c2OCO3)C2C(O)Cc3cc4c(cc3C21)OCO4 (stereo not drawn) [Chelidonine (+)]	0.921
CNC(C)(C)Cc1ccccc1 [Mephentermine hemisulfate]	1.29
CN1CCC2=C[C@H](O)[C@H]3OC(=O)c4cc5c(cc4[C@H]3[C@@H]21)OCO5 [Hippeastrine hydrobromide]	1.29
CC1OC(OC2/C=C/C=C/C=C/C=C/CC/C=C/C=C/[C@H](C)[C@@H](O)[C@@H](C)[C@H](C)OC(=O)CC(O)CC(O)CC(O)CCC(O)C(O)C[C@]3(O)CC(O)C(C(=O)O)C(C2)O3)C(O)C(N)C1O (stereo partly specified) [Nystatine]	1.16
NCCC(O)C(=O)NC1CC(N)C(OC2OC(CN)C(O)[C@H](O)[C@@H]2N)[C@H](OC2O[C@H](CO)[C@@H](O)[C@@H]2O)[C@@H]1O (stereo partly specified) [Butirosin disulfate salt]	0.559

Four structures already listed, ordered by SMILES length, ascending.
Structure (SMILES)	% Pdx1+ Ins1-low
CN1C(=O)CCS(=O)(=O)C1c1ccc(Cl)cc1 (stereo unspecified) [Chlormezanone]	0.811
CNC(=O)Oc1ccc2c(c1)[C@]1(C)CCN(C)[C@@H]1N2C [Eserine sulfate, physostigmine sulfate]	0.959
CN1Cc2c(ccc3c2OCO3)C2C(O)Cc3cc4c(cc3C21)OCO4 (stereo not drawn) [Chelidonine (+)]	0.921
O=C(CCCN1CCC(n2c(=O)[nH]c3ccccc32)CC1)c1ccc(F)cc1 [Benperidol]	0.873
